Experimental data taken from paper PMC5315234.
Results are given in words; binding and its absence hold for the method and conditions named. In cells and extracts the contact can be indirect.

T1: aquaporin-4 (mouse (endogenous in brain tissue)), P55088
T1 chain: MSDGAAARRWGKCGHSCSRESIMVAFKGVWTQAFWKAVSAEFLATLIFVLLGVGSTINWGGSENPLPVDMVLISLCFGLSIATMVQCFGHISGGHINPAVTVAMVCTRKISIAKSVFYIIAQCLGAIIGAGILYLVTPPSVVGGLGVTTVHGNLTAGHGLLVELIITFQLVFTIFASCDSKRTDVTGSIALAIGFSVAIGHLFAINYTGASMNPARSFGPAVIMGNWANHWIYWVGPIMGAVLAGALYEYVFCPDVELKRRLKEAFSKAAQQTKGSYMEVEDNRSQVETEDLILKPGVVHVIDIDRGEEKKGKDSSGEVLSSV

T2: glutamate transporter-1 (mouse (endogenous in brain tissue)), P43006
T2 chain: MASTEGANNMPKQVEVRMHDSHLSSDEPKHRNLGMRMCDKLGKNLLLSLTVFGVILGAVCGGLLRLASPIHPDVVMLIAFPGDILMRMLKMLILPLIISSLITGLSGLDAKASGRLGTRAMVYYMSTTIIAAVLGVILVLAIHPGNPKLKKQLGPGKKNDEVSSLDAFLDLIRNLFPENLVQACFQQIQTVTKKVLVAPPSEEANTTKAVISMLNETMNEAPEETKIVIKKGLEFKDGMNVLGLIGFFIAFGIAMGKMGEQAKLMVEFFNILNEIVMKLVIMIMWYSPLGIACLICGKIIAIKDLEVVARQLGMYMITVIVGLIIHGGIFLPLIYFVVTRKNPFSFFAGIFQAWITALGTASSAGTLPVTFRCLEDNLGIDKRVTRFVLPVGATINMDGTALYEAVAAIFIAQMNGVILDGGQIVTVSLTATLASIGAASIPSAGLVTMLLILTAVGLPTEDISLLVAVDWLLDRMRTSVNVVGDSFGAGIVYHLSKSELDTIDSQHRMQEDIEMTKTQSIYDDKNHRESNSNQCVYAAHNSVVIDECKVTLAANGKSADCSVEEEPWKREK

B1: glutamate transporter-1, P43006 1-572 (protein)
chain: T2 chain
B2: aquaporin-4, P55088 1-323 (protein)
chain: T1 chain

Legend:
[1] = target: T1, aquaporin-4 (mouse (endogenous in brain …)); assay: co-IP; whole brain homogenate (50 µg protein) of C57BL/6 and CD1 wild-type mice; 1% NP-40 substitute lysis buffer (50 mM Tris-HCl pH 8, 150 mM NaCl); anti-AQP4 or anti-GLT1 overnight at 4℃, protein A agarose beads 3 hr at 4℃; Western blot of precipitate and supernatant; conditions: remark: other sources report otherwise
[2] = target: T2, glutamate transporter-1 (mouse …); assay: as above; conditions: remark: other sources report otherwise

| Binder | binding [1] | binding [2] |
| --- | --- | --- |
| B1 | no binding |  |
| B2 |  | no binding |
